Measured values taken from PMC8782181.
No constants are given. Whether binding was seen depends on the method and setting. Binding seen in cells or lysates may run through a third protein. Here binding means that the protein was enriched with, or labelled near, the bait; the list need not be complete. For some assays here: Sequences can lack the tags named with a protein.

Protein sequences, listed by entry. Tags and fused reporters are not part of them.
UniProt P53297: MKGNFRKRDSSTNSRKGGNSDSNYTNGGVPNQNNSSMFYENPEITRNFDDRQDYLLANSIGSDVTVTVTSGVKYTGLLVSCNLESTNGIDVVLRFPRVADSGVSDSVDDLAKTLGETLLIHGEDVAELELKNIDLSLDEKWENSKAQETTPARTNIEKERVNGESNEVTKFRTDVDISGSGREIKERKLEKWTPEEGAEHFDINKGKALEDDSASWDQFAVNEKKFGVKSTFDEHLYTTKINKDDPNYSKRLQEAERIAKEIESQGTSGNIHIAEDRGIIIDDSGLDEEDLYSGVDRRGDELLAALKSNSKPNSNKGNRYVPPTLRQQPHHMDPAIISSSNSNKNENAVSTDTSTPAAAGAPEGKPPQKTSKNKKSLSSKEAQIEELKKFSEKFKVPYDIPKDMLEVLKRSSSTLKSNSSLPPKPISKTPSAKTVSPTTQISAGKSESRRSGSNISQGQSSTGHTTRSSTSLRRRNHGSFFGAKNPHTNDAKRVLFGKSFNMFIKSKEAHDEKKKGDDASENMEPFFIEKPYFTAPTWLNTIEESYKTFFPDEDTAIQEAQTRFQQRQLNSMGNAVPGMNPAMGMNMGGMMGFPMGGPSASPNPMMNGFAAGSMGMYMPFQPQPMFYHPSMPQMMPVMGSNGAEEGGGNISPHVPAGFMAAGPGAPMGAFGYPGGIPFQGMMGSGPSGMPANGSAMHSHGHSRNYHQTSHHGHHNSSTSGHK

B1: Pbp2 (protein, UniProt P38151 1-413)
chain: MSTETTKPSITTTPTTVLVSPNTLKRKKGEDTSEEQLEAEIKRVALKDADSHSDNDHDSPDNVPSDVHLRMLCLVKHASLIVGHKGATISRIKSETSARINISNNIRGVPERIVYVRGTCDDVAKAYGMIVRALLEEHGNEDNGEDIEISINLLIPHHLMGCIIGKRGSRLREIEDLSAAKLFASPNQLLLSNDRILTINGVPDAIHIATFYISQTLLNFQMESPQKNVKRSIYYQPTQFNSVLIDHSQPNTIFHQRNHQYHPSDKLLSYKPNKNLPISSTLLSMATPQYTTASVANATAFQPNFVIPNVTVLDGPVISPAPGNHLLMNFVQQEIFIDEKFVGNVIGKDGKHINSVKESTGCSIIIQDPVEGSSERRLTIRGTFMASQAAIMLISNKIEIDRSNAERKRRSPL
B2: Pbp4 (protein, UniProt Q07362 1-185)
chain: MTTTSTTSVDGRTSSTLKATLSASGPNSNGPTPAVLPQKPKLTGWAQAAAKALPRQQQQQQQARKDDSVAVQPANTKTKTIASTAPPANIKGSSTANGSSTNKKFKRANKQPYNREEVRSYMHKLFQSYTAGEKSHSMKTYKQVLSETASGRVSTATDWGTVSSSKNKNKKYGCLSDIAKVLRNQ
B3: Svl3 (protein, UniProt Q03088 1-825)
chain: MSSSSLRVLAIGNNPNILFYTSRFQLAKNIDLYHVNDSKSCQFEIETEYYGKDRFELENHFTSIEHLTEALSSKSSEAVFDIIIMSAPSLQELSSLASKLTSIIDSNTKIFLESSGFIQLEPFVKLSMESPHVNVFSILTDLDIRQIGPNHFKHFPSTAKENTIYLGESKSSTEKYSSGVITLLTTFEKLFAKLFSNIKINLCNFSSIEFLSQQWKLAISRICFDPLLIMFEQENPSDLDQQIIAKPLISGLVTEIITVAKTMGARLNSSHDNENSLLSLWKNSYHSTNKPPALVYHFIHQTTPLNIDILLLQTILLADDFGIKTPYLEFLYSVLSQFERLNSGKSKWFIRSDEKTQILQSLQKSQKNESALQTQITSLQGQISKLRQELLMQAKQHEMETNELKEKHQVALKAQAQAQAQAQSQAQTSIEALTPTEATNQSDTNEYKATGTPNLRDIEDMALYSVNYGDSPVRSPPPVVSSQPQMNSPLSSHSQTFGENNGTNDKLLQERELQLRKKELELQERELEFQKRALQQQRFNNSNNSIPRKPSFPQLQQSANVRSNSRGMHGTNGAMSQPASAGNFVDPISSSIAAYDPQQPPSLPLQQPQQSVQVQPFHSHSIKPTSRKNRNSNMPNIGNPSSINMSDFGRPPNNSSQTRLNSMPTHSIVNQNRLRSQQSKNKLNMPHATNPNNTFNQVPAPSLNNHVPTQRQFSSSTMIEVTNNNNKVNNSSSNPDISTNSVVHNAMQFTNTNNNTSSTVDINDPKNIAPPPTTSVSAPSTPTLSSSSQMANMASPSTDNGDNEEKNGGKKKRFGLFKKKNKSKK
B4: Syh1 (protein, UniProt Q02875 1-849)
chain: MNPINSLAFDLHSVKLADANSDTAALSNSNTPTMNNAALLQRPSSIMDSIGVQRVPSPFVPGSNAISGASTVPFNAYDAEITGSPLQISANQENNSAFSAASSNLHMNASSPSVLNKPSSTFPNVAPYLYNATGPAPNVGNQPPPPGIESQWKYIDSNGNIQGPFGTNNMSQWYQGGYFTPTLQICRLATSPEPFGVNDRFIRLGELTTLVNNYQDPFVAFDFIVIRALNAVPLVAPTSSEKQKVESRDLIPVADVHSDDFTYEEILGLKFEDGSYYHETQVWVPVDGRHITKVDRIPKISAYTAPLSTTSSRSNKTTSSHEEKVPSHEEASPEEQEVFSEEGRTVSNITNEEESIVKNPTKQEEESRGSEKEQNILDQVQPEIEEVDRKDVISTADEPKSKDTPQMTSEEQKRFAKAELMAQKLLEEQQRQEEEKKRREEQRKLKKEKKLKQKQKKEEEKLKKKKKEEGKLEKEKQKELLNNILTGDTETPSSENTATSITTNLAPWANKKPEGAVYNQISSALEDLKKENSSKKEKKPNRTQLDREQALKLQKEILSSAQIPKTQTGSAWGIKPQQPIKVDIKGELMKDSTKINSQSKINKANNGDIKPDSTFIEEQKKLWEQVQKKTKKFNRASSLDDFISRTPSPSSSALNSSNTSNAWTTVSSKSTTHIASTMPVAGNQSKSYISLDTLRSSGGLSTATKTKMSDKSKQIGSSTSIPTLKARQVKPSRIPAYPGNASVSKRQEFLRWCRSQLKLNTGVQPDNVLEMLLSLPPGSESKEIIADTIYSYSSTMDGRRFATDFIKKRLECEEEINDPLSWSEVLAMPEGSSEDWEFQVVGKKKGKRF

molecular target: Pbp1-myc (S. cerevisiae) (UniProt P53297); experiment: affinity purification with mass spectrometry; cells unstressed or glucose-depleted (10 min for Dcp1-myc, 60 min for Pbp1-myc), cross-linked with 0.8% formaldehyde; 20,000 g pellet of the lysate in Blob100 buffer (20 mM Tris-HCl pH 8, 100 mM NaCl, 1 mM MgCl2, 0.5% NP40) on anti-c-Myc magnetic beads, eluted with Myc peptide; label-free LC-MS/MS; hits are the proteins that cluster (Mfuzz) with the tagged bait across IP, pellet, supernatant, total and unbound fractions

binding, binds:
B1
B2
B3
B4

molecular target: T1, Dcp1-myc (S. cerevisiae) (UniProt Q12517); experiment: as above
T1 sequence: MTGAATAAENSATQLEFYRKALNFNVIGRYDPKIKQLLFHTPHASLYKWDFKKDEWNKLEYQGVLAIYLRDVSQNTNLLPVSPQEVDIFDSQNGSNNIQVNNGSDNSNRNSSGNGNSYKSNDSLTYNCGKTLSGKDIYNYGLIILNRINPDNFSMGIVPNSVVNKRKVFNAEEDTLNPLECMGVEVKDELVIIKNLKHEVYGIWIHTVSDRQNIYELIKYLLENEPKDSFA

binding, binds:
B1
B2
B3
B4
